Test results as given in PMC3340383, “Synthesis and Evaluation of a Series of 2-Substituted-5-Thiopropylpiperazine (Piperidine)-1,3,4-Oxadiazoles Derivatives as Atypical Antipsychotics” (PLoS ONE, 2012).

System: catalepsy in mice
Test: Catalepsy test (horizontal bar)
Conditions: for C/B: ratio catalepsy ED50 / MK-801-induced hyperactivity ED50

| SMILES | therapeutic indices between efficacy (apomorphine or MK-801 models) and side effects (catalepsy) (mice, po, range over both efficacy models) | C/B | C/A (ratio catalepsy ED50 / apomorphine-induced climbing ED50) |
| --- | --- | --- | --- |
| Fc1ccc2c(C3CCN(CCCSc4nnc(-c5cccc6ccccc56)o4)CC3)noc2c1 [Compound 22, 2-(3-(4-(6-fluorobenzo[d]isoxazol-3-yl)piperidin-1-yl)propylthio)-5-(naphthalen-1-yl)-1,3,4-oxadiazole] | 81–83 | 83.80 | – |
| O=C(CCCN1CCC(O)(c2ccc(Cl)cc2)CC1)c1ccc(F)cc1 [haloperidol] | – | 1.16 | 2.44 |
